Test results taken from US20100298285A1, “Biclycloheteroaryl Compounds as P2x7 Modulators and Uses Thereof” (priority 2006, published 2010).
The name of at least one read-out is uncertain.

Test system: IL-1β release, THP-1 cells
Assay: IL-1β release assay in differentiated THP-1 cells stimulated with BzATP (Example 9)
Assay type: cell-based, human
Conditions: BzATP 250 uM, "+" symbols = inhibition at 0.3 μM, "*" symbols = inhibition at 0.1 μM
Experimental: THP-1 cells (ATCC Cat # 285-IF-100) are plated in 96 well plates at a concentration of 200,000 cells per well and allowed to differentiate in RPMI-1640 media (ATCC Cat # 30-2001) containing 10% FBS, 100 IU/mL penicillin, 100 ug/mL streptomycin, 100 ng/mL LPS and 100 ng/mL IFN-γ for 16 hours. Following differentiation, the cells are treated for an additional 2 hours in RPMI-1640 media containing 100 IU/mL penicillin, 100 ug/mL streptomycin and fresh LPS at 100 ng/mL. The cells are then pretreated for 30 minutes with the compound of interest at the appropriate concentration in RPMI media containing 100 IU/mL penicillin, 100 ug/mL streptomycin. Following the pretreatment 2′,3′-O-(4-benzoylbenzoyl)-adenosine 5′-triphosphate (Sigma Aldrich Cat # B6396) is added to a final concentration of 250 uM and the cells are incubated for an additional 45 minutes. 30 uL of cell supernatant is then collected and IL-1β levels determined via ELISA (R&D systems Cat. # HSLB50) according to manufacturer's recommendations using the Tecan Safire plate reader. Background adjusted IL-1β levels of drug treated and non-treated cells are used to calculate the percent inhibition.
The following compounds have been or can be prepared according to the synthetic methods described above. For the purpose of Table 1 below, activity of each compound, which can be determined using the IL-1β assay method described in Example 9, is expressed as follows: […]
The compounds set forth in Table 1 were tested for activity in a cellular model as described herein. Specifically, cells were pretreated with differing amounts of the compound under test and released IL-1β determined as in Example 9, above. Measurements were made and IC50 values, presented in Table 2, below, were determined by fitting the data to a four parameter logistic equation using GraphPad Prism software (GraphPad Software, Inc). The equation may be expressed by the following formula:
Y=Bottom+(Top−Bottom)/(1+10̂((Log EC50−X)*HillSlope))
Where X is the logarithm of concentration, Y is the response and Y starts at Bottom and goes to Top with a sigmoid shape.

Structure (SMILES)	IL-1β% Inhib. @ 0.3 or 0.1 μM
Cc1ccc2c(c1NC(=O)Cc1ccc(C(F)(F)F)c(F)c1)CCN(C(=O)c1ccc(C(C)(C)C)cc1)C2 [Compound 3246]	+ (compound exhibited 0-25% inhibition at 0.3 μM concentration)
Cc1ccc2c(c1NC(=O)Cc1ccc(C(F)(F)F)c(F)c1)CCN(C(=O)c1ccc3ccccc3n1)C2 [Compound 3247]	++ (compound exhibited 26-50% inhibition at 0.3 μM concentration)
Cc1ccc2c(c1NC(=O)Cc1ccc(C(F)(F)F)c(F)c1)CCN(C(=O)c1ccncc1)C2 [Compound 3248]	+ (compound exhibited 0-25% inhibition at 0.3 μM concentration)
CC(=O)Nc1ccc(C(=O)N2CCc3c(ccc(C)c3NC(=O)Cc3ccc(C(F)(F)F)c(F)c3)C2)cc1 [Compound 3249]	+ (compound exhibited 0-25% inhibition at 0.3 μM concentration)
COc1ccc(C(=O)N2CCc3c(ccc(C)c3NC(=O)Cc3ccc(C(F)(F)F)c(F)c3)C2)cc1OC [Compound 3250]	+ (compound exhibited 0-25% inhibition at 0.3 μM concentration)
Cc1ccc2c(c1NC(=O)Cc1ccc(C(F)(F)F)c(F)c1)CCN(C(=O)CCC1CCCCC1)C2 [Compound 3251]	++++ (compound exhibited 76% or greater inhibition at 0.3 μM concentration)
Cc1ccc2c(c1NC(=O)Cc1ccc(C(F)(F)F)c(F)c1)CCN(C(=O)c1cc(Cl)cc(Cl)c1)C2 [Compound 3252]	+ (compound exhibited 0-25% inhibition at 0.3 μM concentration)
Cc1ccc2c(c1NC(=O)Cc1ccc(C(F)(F)F)c(F)c1)CCN(C(=O)c1ccc(C(F)(F)F)nc1)C2 [Compound 3253]	+ (compound exhibited 0-25% inhibition at 0.3 μM concentration)
Cc1ccc2c(c1NC(=O)Cc1ccc(C(F)(F)F)c(F)c1)CCN(C(=O)c1ccc(Oc3ccccc3)nc1)C2 [Compound 3254]	+ (compound exhibited 0-25% inhibition at 0.3 μM concentration)
Cc1ccc2c(c1NC(=O)Cc1ccc(C(F)(F)F)c(F)c1)CCN(C(=O)c1nccs1)C2 [Compound 3255]	++++ (compound exhibited 76% or greater inhibition at 0.3 μM concentration)
O=C(Cc1ccc(C(F)(F)F)c(F)c1)Nc1cccc2c1CCN(CC(O)Cc1ccccc1)C2 (stereo not shown) [Compound 3257]	++ (compound exhibited 26-50% inhibition at 0.3 μM concentration)
O=C(Cc1ccc(C(F)(F)F)c(F)c1)Nc1c(Cl)ccc2c1CCN(S(=O)(=O)c1ccc(Oc3ncc(C(F)(F)F)cc3Cl)cc1)C2 [Compound 3258]	+ (compound exhibited 0-25% inhibition at 0.3 μM concentration)
O=C(Cc1ccc(C(F)(F)F)c(F)c1)Nc1c(Cl)ccc2c1CCN(S(=O)(=O)c1ccc(Cl)cc1)C2 [Compound 3259]	+ (compound exhibited 0-25% inhibition at 0.3 μM concentration)
COc1ccc(S(=O)(=O)N2CCc3c(ccc(Cl)c3NC(=O)Cc3ccc(C(F)(F)F)c(F)c3)C2)cc1 [Compound 3260]	+ (compound exhibited 0-25% inhibition at 0.3 μM concentration)
CCCCS(=O)(=O)N1CCc2c(ccc(Cl)c2NC(=O)Cc2ccc(C(F)(F)F)c(F)c2)C1 [Compound 3261]	++ (compound exhibited 26-50% inhibition at 0.3 μM concentration)
O=C(Cc1ccc(C(F)(F)F)c(F)c1)Nc1c(Cl)ccc2c1CCN(S(=O)(=O)c1ccc(F)cc1)C2 [Compound 3262]	++ (compound exhibited 26-50% inhibition at 0.3 μM concentration)
COc1ccc(Oc2ccc(S(=O)(=O)N3CCc4c(ccc(Cl)c4NC(=O)Cc4ccc(C(F)(F)F)c(F)c4)C3)cc2)cc1 [Compound 3263]	++ (compound exhibited 26-50% inhibition at 0.3 μM concentration)
Cc1ccccc1S(=O)(=O)N1CCc2c(ccc(Cl)c2NC(=O)Cc2ccc(C(F)(F)F)c(F)c2)C1 [Compound 3264]	++ (compound exhibited 26-50% inhibition at 0.3 μM concentration)
O=C(Cc1ccc(C(F)(F)F)c(F)c1)Nc1c(Cl)ccc2c1CCN(S(=O)(=O)c1ccccc1F)C2 [Compound 3265]	++ (compound exhibited 26-50% inhibition at 0.3 μM concentration)
